We go through 3 compounds from patent US10214766B2, “Luminescent substrate for use in artificial bioluminescent enzyme” (NATIONAL INSTITUTE OF ADVANCED INDUSTRIAL SCIENCE AND …, priority 2013, dated 2019).

The test system of this data set is ALuc34. Kind of data set: Bioluminescence spectrum of ALuc34 lysate with luminescent substrate. The settings on record: 5 μL lysate + 30 μL substrate, AB-1850. The format is biochemical.
For `O=c1c(Cc2ccc(F)cc2)nc2c(Cc3ccccc3)[nH]c(-c3ccc(O)cc3)cn1-2` [CTZ f, coelenterazine f], the “Spectrum peak ALuc34” value is reported as 515 nm.
Regarding `O=c1c(Cc2ccccc2)nc2c(Cc3ccccc3)[nH]c(-c3ccc(O)cc3)cn1-2` [CTZ h, coelenterazine h], the “Spectrum peak ALuc34” value stood at 519 nm.
The value for `O=c1c(Cc2ccc(I)cc2)nc2c(Cc3ccccc3)[nH]c(-c3ccc(O)cc3)cn1-2` [CTZ i, coelenterazine i] was 526 nm.
